System: HCV (JFH-1) infected Huh7 cells
Settings: 24 hours
Description: Huh7 cells were infected with the JFH-1 strain of hepatitis C virus (genotype 2a) as previously described in Wakita et al., (2005), “Production of infectious hepatitis C virus in tissue culture from a cloned viral genome”, Nat. Med., 11(7):791-796). Briefly, pJFH-1 plasmids encoding full length HCV genome (provided by T. Wakita, National Institute of Infectious Diseases, Japan) were linearized and HCV RNA was synthesized using T7 RiboMAX™ Express Large Scale RNA Production System (Promega). 10 μg of HCV RNA was added to 1.6×10^6 Huh7 cells suspended in 800 ul PBS buffer. A Bio-Rad Gene Pulser system was used to deliver a single pulse at 0.34 kV, 975 μF, using 4 mm electroporation cuvettes. Cells were cultured at 37° C. in a 5% CO2 atmosphere in Dulbecco's modified Eagle's medium (DMEM) supplemented with 10% fetal bovine serum for 10 days (Gibco).
HCV RNA was amplified from infected Huh7 cells using specific primers targeting the 5′ noncoding region under the following conditions: 10 min at 95° C.; 40 cycles of 94° C. for 15 s and 60° C. for 45 s. Samples were analysed in triplicate and relative expression of HCV RNA normalised to 18s.
JFH-1 infected Huh7 cells cultured in 6 well plates were treated with HU-210 (100 nM), either alone or with increasing concentrations of the antagonists NlDA-41020 or (S)-SLV-319 (1 nM, 10 nM, 100 nM and 1 μM). Untreated cells and cells treated with CB1 antagonist alone (100 nM) were used as controls. After 24 hours cells were harvested, total RNA extracted, and HCV RNA measured by qPCR. Three replicate experiments were performed for each set of conditions and mean values calculated.

## COc1ccc(-c2c(C)c(C(=O)NN3CCCCC3)nn2-c2ccc(Cl)cc2Cl)cc1 [NIDA-41020, 1-(2,4-Dichlorophenyl)-5-(4-methoxyphenyl)-4-methyl-N-(1-piperidinyl)-1H-pyrazole-3-carboxamide]
HCV RNA by qPCR (FIG. 9; discussion)
  effect on HCV replication (in words): inhibited
CB1 antagonist alone (100 nM), HCV RNA by qPCR (FIG. 8)
  reduction of HCV replication: ~75%
HU-210 100 nM plus antagonist 1 nM-1 μM, HCV RNA by qPCR (FIG. 7)
  effect on the HU-210-induced increase of HCV replication: reversed
